Binding data for two molecules are collected here from paper doi:10.1101/2025.02.25.640159.

The chains behind the UniProt entries cited, without tags or fusion partners.
UniProt O24456: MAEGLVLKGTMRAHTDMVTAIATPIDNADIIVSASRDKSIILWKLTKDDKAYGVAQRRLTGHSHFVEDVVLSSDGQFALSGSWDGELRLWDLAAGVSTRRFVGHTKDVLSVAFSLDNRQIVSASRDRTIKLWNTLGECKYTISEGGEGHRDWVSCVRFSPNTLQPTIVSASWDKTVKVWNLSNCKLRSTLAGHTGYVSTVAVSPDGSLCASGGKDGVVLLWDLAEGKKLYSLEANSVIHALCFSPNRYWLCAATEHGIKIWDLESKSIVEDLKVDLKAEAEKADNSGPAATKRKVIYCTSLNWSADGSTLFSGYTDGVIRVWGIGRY

The target in this experiment is YFPn-RACK1A (Arabidopsis thaliana) (UniProt O24456). Kind of experiment: split reporter.

Results are given in words; binding and its absence hold for the method and conditions named. Binding seen in cells or lysates may run through a third protein. Some entries that bind do so weakly or less than the wild type.

B1: NUDT7-YFPc (NUDIX HYDROLASE 7) (enzyme, UniProt Q9SU14 1-282)
chain: MGTRAQQIPLLEGETDNYDGVTVTMVEPMDSEVFTESLRASLSHWREEGKKGIWIKLPLGLANLVEAAVSEGFRYHHAEPEYLMLVSWISETPDTIPANASHVVGAGALVINKNTKEVLVVQERSGFFKDKNVWKLPTGVINEGEDIWTGVAREVEEETGIIADFVEVLAFRQSHKAILKKKTDMFFLCVLSPRSYDITEQKSEILQAKWMPIQEYVDQPWNKKNEMFKFMANICQKKCEEEYLGFAIVPTTTSSGKESFIYCNADHAKRLKVSRDQASASL
For B1, the binding entry was “binds”.

B2: YFPc-GPA1 (GUANINE NUCLEOTIDE-BINDING PROTEIN ALPHA-1 SUBUNIT) (protein, UniProt P18064 1-383)
chain: MGLLCSRSRHHTEDTDENTQAAEIERRIEQEAKAEKHIRKLLLLGAGESGKSTIFKQIKLLFQTGFDEGELKSYVPVIHANVYQTIKLLHDGTKEFAQNETDSAKYMLSSESIAIGEKLSEIGGRLDYPRLTKDIAEGIETLWKDPAIQETCARGNELQVPDCTKYLMENLKRLSDINYIPTKEDVLYARVRTTGVVEIQFSPVGENKKSGEVYRLFDVGGQRNERRKWIHLFEGVTAVIFCAAISEYDQTLFEDEQKNRMMETKELFDWVLKQPCFEKTSFMLFLNKFDIFEKKVLDVPLNVCEWFRDYQPVSSGKQEIEHAYEFVKKKFEELYYQNTAPDRVDRVFKIYRTTALDQKLVKKTFKLVDETLRRRNLLEAGLL
As to B2, the binding entry is listed as “no binding”.
